Test results as given in patent publication US20260001910A1 (PreveCeutical Medical Inc., priority 2021, published 2026).
HELM strings list residues between dots; [ac] is acetyl, [am] amide, other brackets name non-standard units.

Experiment: general procedure: Fmoc solid-phase peptide synthesis; Rink Amide resin (0.47 meq/g); Oxyma Pure and DIPCDI
Conditions: whole synthesis

PEPTIDE1{[dY].G.G.[dF].[dL].[dR].[dR].[am]}$$$$V2.0
final HPLC purity: 98.3%
